Some results were stated once for a whole list of compounds, not compound by compound.
Experiment: Pellet formation by heat molding (heat processing of compounds)
Type: physicochemical
Conditions: processed ~10-30° C. above Tg or Tm, pressed into cylindrical mold ~1 mm x 1 mm; light microscopy
Experimental: Crystalline powder was melted at 185° C. and pellets were formed from 1 mm×1 mm cylindrical molds. The starting powder and heat-processed pellets were tested by differential scanning calorimetry (DSC; FIG. 1C) and X-ray powder diffraction (XRPD; FIG. 1D) to confirm heat-processing converted Compound 1 from the crystalline state to the glassy state.
Compounds that were collected as stable powders and/or gums were investigated for pellet formation by heat molding. Compounds were processed at a temperature ˜10-30° C. above their corresponding thermal transitions (glass transition temperature (Tg) for gums or amorphous powders or melting point (Tm) for crystalline powders) and pressed into a cylindrical mold of ˜1 mm in height×1 mm in diameter. Light microscopy was used to capture images of the heat-formed pellets. Temperatures used to achieve a melt for heat molding were in a range from 70° C. to 220° C.
For `C=CCN1CC[C@]23c4c5ccc(OC(=O)CCCCC(=O)Oc6ccc7c8c6O[C@H]6C(=O)CC[C@@]9(O)[C@@H](C7)N(CC=C)CC[C@]869)c4O[C@H]2C(=O)CC[C@@]3(O)[C@H]1C5` [Compound 9, bis((4R,4aS,7aR,12bS)-3-allyl-4a-hydroxy-7-oxo-2,3,4,4a,5,6,7,7a-octahydro-1H-4,12-methanobenzofuro[3,2-e]isoquinolin-9-yl) adipate], the “Pellet formation by heat molding and handling properties of the pellet” value (“Pellet formation” for short) was “successfully formed a (e.g., glassy, mostly transparent) pellet”.
For `C=C1CC[C@@]2(O)[C@H]3Cc4ccc(OC(=O)CCCCC(=O)Oc5ccc6c7c5O[C@H]5C(=C)CC[C@@]8(O)[C@@H](C6)N(CC6CC6)CC[C@]758)c5c4[C@@]2(CCN3CC2CC2)[C@H]1O5` [Compound 11, bis((4R,4aS,7aS,12bS)-3-(cyclopropylmethyl)-4a-hydroxy-7-methylene-2,3,4,4a,5,6,7,7a-octahydro-1H-4,12-methanobenzofuro[3,2-e]isoquinolin-9-yl) adipate], the “Pellet formation” value was “successfully formed a (e.g., glassy, mostly transparent) pellet”.
In the case of `C=CCN1CC[C@]23c4c5ccc(OC(=O)CCCCCCCCC(=O)Oc6ccc7c8c6O[C@H]6C(=O)CC[C@@]9(O)[C@@H](C7)N(CC=C)CC[C@]869)c4O[C@H]2C(=O)CC[C@@]3(O)[C@H]1C5` [Compound 12, bis((4R,4aS,7aR,12bS)-3-allyl-4a-hydroxy-7-oxo-2,3,4,4a,5,6,7,7a-octahydro-1H-4,12-methanobenzofuro[3,2-e]isoquinolin-9-yl) decanedioate], the “Pellet formation” value is reported as “successfully formed a (e.g., glassy, mostly transparent) pellet”.
For `C=CCN1CC[C@]23c4c5ccc(OC(=O)OCC6CCC(COC(=O)Oc7ccc8c9c7O[C@H]7C(=O)CC[C@@]%10(O)[C@@H](C8)N(CC=C)CC[C@]97%10)CC6)c4O[C@H]2C(=O)CC[C@@]3(O)[C@H]1C5` (stereo partly drawn) [Compound 13, bis((4R,4aS,7aR,12bS)-3-allyl-4a-hydroxy-7-oxo-2,3,4,4a,5,6,7,7a-octahydro-1H-4,12-methanobenzofuro[3,2-e]isoquinolin-9-yl) (cyclohexane-1,4-diylbis(methylene)) bis(carbonate)], the “Pellet formation” value was “successfully formed a (e.g., glassy, mostly transparent) pellet”.
With `O=C(CCCCCCCCC(=O)Oc1ccc2c3c1O[C@H]1C(=O)CC[C@@]4(O)[C@@H](C2)N(CC2CC2)CC[C@]314)Oc1ccc2c3c1O[C@H]1C(=O)CC[C@@]4(O)[C@@H](C2)N(CC2CC2)CC[C@]314` [Compound 14, bis((4R,4aS,7aR,12bS)-3-(cyclopropylmethyl)-4a-hydroxy-7-oxo-2,3,4,4a,5,6,7,7a-octahydro-1H-4,12-methanobenzofuro[3,2-e]isoquinolin-9-yl) decanedioate] the “Pellet formation” value was “successfully formed a (e.g., glassy, mostly transparent) pellet”.
In the case of `O=C(Oc1ccc2c3c1O[C@H]1C(=O)CC[C@@]4(O)[C@@H](C2)N(CC2CC2)CC[C@]314)C1CCC(C(=O)Oc2ccc3c4c2O[C@H]2C(=O)CC[C@@]5(O)[C@@H](C3)N(CC3CC3)CC[C@]425)CC1` (stereo partly drawn) [Compound 15, bis((4R,4aS,7aR,12bS)-3-(cyclopropylmethyl)-4a-hydroxy-7-oxo-2,3,4,4a,5,6,7,7a-octahydro-1H-4,12-methanobenzofuro[3,2-e]isoquinolin-9-yl) cyclohexane-1,4-dicarboxylate], the “Pellet formation” value is reported as “successfully formed a (e.g., glassy, mostly transparent) pellet”.
With `O=C(Oc1ccc2c3c1O[C@H]1C(=O)CC[C@@]4(O)[C@@H](C2)N(CC2CC2)CC[C@]314)c1ccc(C(=O)Oc2ccc3c4c2O[C@H]2C(=O)CC[C@@]5(O)[C@@H](C3)N(CC3CC3)CC[C@]425)cc1` [Compound 16, bis((4R,4aS,7aR,12bS)-3-(cyclopropylmethyl)-4a-hydroxy-7-oxo-2,3,4,4a,5,6,7,7a-octahydro-1H-4,12-methanobenzofuro[3,2-e]isoquinolin-9-yl) terephthalate] the “Pellet formation” value was “successfully formed a (e.g., glassy, mostly transparent) pellet”.
For `O=C(CCCCCCCCCCCCC(=O)Oc1ccc2c3c1O[C@H]1C(=O)CC[C@@]4(O)[C@@H](C2)N(CC2CC2)CC[C@]314)Oc1ccc2c3c1O[C@H]1C(=O)CC[C@@]4(O)[C@@H](C2)N(CC2CC2)CC[C@]314` [Compound 17, bis((4R,4aS,7aR,12bS)-3-(cyclopropylmethyl)-4a-hydroxy-7-oxo-2,3,4,4a,5,6,7,7a-octahydro-1H-4,12-methanobenzofuro[3,2-e]isoquinolin-9-yl) tetradecanedioate], the “Pellet formation” value was “successfully formed a (e.g., glassy, mostly transparent) pellet”.
In the case of `CCC(C)(CC(=O)Oc1ccc2c3c1O[C@H]1C(=O)CC[C@@]4(O)[C@@H](C2)N(CC2CC2)CC[C@]314)CC(=O)Oc1ccc2c3c1O[C@H]1C(=O)CC[C@@]4(O)[C@@H](C2)N(CC2CC2)CC[C@]314` [Compound 18, bis((4R,4aS,7aR,12bS)-3-(cyclopropylmethyl)-4a-hydroxy-7-oxo-2,3,4,4a,5,6,7,7a-octahydro-1H-4,12-methanobenzofuro[3,2-e]isoquinolin-9-yl) 3-ethyl-3-methylpentanedioate], the “Pellet formation” value is reported as “successfully formed a (e.g., glassy, mostly transparent) pellet”.
With `O=C(OCCCCCCOC(=O)Oc1ccc2c3c1O[C@H]1C(=O)CC[C@@]4(O)[C@@H](C2)N(CC2CC2)CC[C@]314)Oc1ccc2c3c1O[C@H]1C(=O)CC[C@@]4(O)[C@@H](C2)N(CC2CC2)CC[C@]314` [Compound 19, bis((4R,4aS,7aR,12bS)-3-(cyclopropylmethyl)-4a-hydroxy-7-oxo-2,3,4,4a,5,6,7,7a-octahydro-1H-4,12-methanobenzofuro[3,2-e]isoquinolin-9-yl) hexane-1,6-diyl bis(carbonate)] the “Pellet formation” value was “successfully formed a (e.g., glassy, mostly transparent) pellet”.
With `O=C(OCC1CCC(COC(=O)Oc2ccc3c4c2O[C@H]2C(=O)CC[C@@]5(O)[C@@H](C3)N(CC3CC3)CC[C@]425)CC1)Oc1ccc2c3c1O[C@H]1C(=O)CC[C@@]4(O)[C@@H](C2)N(CC2CC2)CC[C@]314` (stereo partly drawn) [Compound 20, cyclohexane-1,4-diylbis(methylene) bis((4R,4aS,7aR,12bS)-3-(cyclopropylmethyl)-4a-hydroxy-7-oxo-2,3,4,4a,5,6,7,7a-octahydro-1H-4,12-methanobenzofuro[3,2-e]isoquinolin-9-yl) bis(carbonate)] the “Pellet formation” value was “successfully formed a (e.g., glassy, mostly transparent) pellet”.
With `CN1CC[C@]23c4c5ccc(OC(=O)CCCCC(=O)Oc6ccc7c8c6O[C@H]6C(=O)CC[C@H]9[C@@H](C7)N(C)CC[C@]869)c4O[C@H]2C(=O)CC[C@H]3[C@H]1C5` [Compound 21, bis((4R,4aR,7aR,12bS)-3-methyl-7-oxo-2,3,4,4a,5,6,7,7a-octahydro-1H-4,12-methanobenzofuro[3,2-e]isoquinolin-9-yl) adipate] the “Pellet formation” value was “successfully formed a (e.g., glassy, mostly transparent) pellet”.
For `COc1ccc2c3c1O[C@H]1[C@@H](OC(=O)CCCCC(=O)O[C@H]4C=C[C@H]5[C@H]6Cc7ccc(OC)c8c7[C@@]5(CCN6C)[C@H]4O8)C=C[C@H]4[C@@H](C2)N(C)CC[C@@]341` [Compound 22, bis((4R,4aR,7S,7aR,12bS)-9-methoxy-3-methyl-2,3,4,4a,7,7a-hexahydro-1H-4,12-methanobenzofuro[3,2-e]isoquinolin-7-yl) adipate], the “Pellet formation” value was “successfully formed a (e.g., glassy, mostly transparent) pellet”.
